Results are given in words; binding and its absence hold for the method and conditions named. For some of these results: In cells and extracts the contact can be indirect. Some binding calls cover weakened binding; strength is not graded here. For some of these results: Where a sequence is shown, tags or fusion partners need not be part of it.
B1: LHP1, yeast two-hybrid fusion (protein, UniProt Q946J8 1-445)
chain: MKGASGAVKKKPQVLNEAGEAETAVETVGESRKISGDGGFGSDDGGGGGGGGSGESILREIGDDRPTEDGDEEEEEDEDEDDGGDEEDEEGEGEGGQEERPKLDEGFYEIEAIRRKRVRKGKVQYLIKWRGWPETANTWEPLENLQSIADVIDAFEGSLKPGKPGRKRKRKYAGPHSQMKKKQRLTSTSHDATEKSDSSTSLNNSSLPDIPDPLDLSGSSLLNRDVEAKNAYVSNQVEANSGSVGMARQVRLIDNEKEYDPTLNELRGPVNNSNGAGCSQGGGIGSEGDNVRPNGLLKVYPKELDKNSRFIGAKRRKSGSVKRFKQDGSTSNNHTAPTDQNLTPDLTTLDSFGRIARMGNEYPGVMENCNLSQKTKIEELDITKILKPMSFTASVSDNVQEVLVTFLALRSDGKEALVDNRFLKAHNPHLLIEFYEQHLKYNRTP
B2: LHP1, BiFC construct (protein, UniProt Q946J8 1-445)
chain: MKGASGAVKKKPQVLNEAGEAETAVETVGESRKISGDGGFGSDDGGGGGGGGSGESILREIGDDRPTEDGDEEEEEDEDEDDGGDEEDEEGEGEGGQEERPKLDEGFYEIEAIRRKRVRKGKVQYLIKWRGWPETANTWEPLENLQSIADVIDAFEGSLKPGKPGRKRKRKYAGPHSQMKKKQRLTSTSHDATEKSDSSTSLNNSSLPDIPDPLDLSGSSLLNRDVEAKNAYVSNQVEANSGSVGMARQVRLIDNEKEYDPTLNELRGPVNNSNGAGCSQGGGIGSEGDNVRPNGLLKVYPKELDKNSRFIGAKRRKSGSVKRFKQDGSTSNNHTAPTDQNLTPDLTTLDSFGRIARMGNEYPGVMENCNLSQKTKIEELDITKILKPMSFTASVSDNVQEVLVTFLALRSDGKEALVDNRFLKAHNPHLLIEFYEQHLKYNRTP

Protein sequences, listed by entry. Tags and fused reporters are not part of them.
UniProt A2RVQ5: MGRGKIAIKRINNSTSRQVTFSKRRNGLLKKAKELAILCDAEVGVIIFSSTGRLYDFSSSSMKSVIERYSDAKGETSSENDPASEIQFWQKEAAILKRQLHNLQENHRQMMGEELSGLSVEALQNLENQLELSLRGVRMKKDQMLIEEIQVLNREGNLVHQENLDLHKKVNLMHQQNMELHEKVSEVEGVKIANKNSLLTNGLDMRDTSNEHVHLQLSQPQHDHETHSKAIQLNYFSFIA
UniProt O64645: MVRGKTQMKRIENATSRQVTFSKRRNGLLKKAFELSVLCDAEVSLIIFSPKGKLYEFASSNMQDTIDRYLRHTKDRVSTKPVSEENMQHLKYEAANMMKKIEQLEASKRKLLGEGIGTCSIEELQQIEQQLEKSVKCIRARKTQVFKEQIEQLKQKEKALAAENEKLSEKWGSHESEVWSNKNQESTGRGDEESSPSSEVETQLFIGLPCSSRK

molecular target: AGL16 (AGAMOUS LIKE 16), yeast two-hybrid fusion (Arabidopsis thaliana) (UniProt A2RVQ5); assay: two-hybrid

Molecule | binding
AGL16 (AGAMOUS LIKE 16), yeast two-hybrid fusion (from UniProt A2RVQ5 1-240) | binds
SOC1 (SUPPRESSOR OF CONSTANS 1), yeast two-hybrid fusion (from UniProt O64645 1-214) | binds
SVP (SHORT … PHASE), yeast two-hybrid fusion (from UniProt Q9FVC1 1-240) | binds
B1 | no binding

molecular target: AGL16-nYFP (35S:AGL16-nYFP) (Arabidopsis thaliana) (UniProt A2RVQ5); assay: split reporter

Molecule | binding
SOC1-cYFP (35S:SOC1-cYFP) (from UniProt O64645 1-214) | binds
SVP, BiFC construct (from UniProt Q9FVC1 1-240) | binds
B2 | no binding

Reference: article doi:10.1101/2021.05.10.443448
